Earlier results on 1 compound are cited in patent publication US20220183969A1, “OCULAR INSERT CONTAINING A GLUCOCORTICOID” (Ocular Therapeutix, Inc., priority 2020, published 2022).

SMILES strings stand for the structures.

For `C[C@@H]1C[C@H]2[C@@H]3CCC4=CC(=O)C=C[C@]4(C)[C@@]3(F)[C@@H](O)C[C@]2(C)[C@@]1(O)C(=O)CO` [Dexamethasone, 9-Fluor-11β,17,21-trihydroxy-16α-methyl-pregna-1,4-dien-3,20-dion], the “solubility in an aqueous medium” value (aqueous medium such as the tear fluid) was “less than 100 μg/mL”. For the setting “at 25° C.”, the solubility in water result was “approx. 89 mg/L”.
